Data as given in ChEMBL document CHEMBL4513141, “CO-ADD screening of NIH (USA) - Clinical Collection” (2021).
Only a part is listed here, and it is no random draw. Entries with a potency or affinity are not part of this list.

These compounds were tested on Escherichia coli. Conditions: Concentration 20 uM; ASSAY_TEST Inhibition of Bacterial Growth; detection method Absorption (OD600); MEDIA CAMHB; plate type 384well; NBS; CORNING #3640; time 18 hr.
With COc1ccc2cc([C@H](C)C(=O)[O-])ccc2c1.[Na+] [NAPROXEN SODIUM] the Inhibition was 5.74%. For Cc1cnc(C(=O)NCCc2ccc(S(=O)(=O)NC(=O)NC3CCCCC3)cc2)cn1 [GLIPIZIDE], the Inhibition was 0.63%. With CC(C)(C(=O)O)c1ccc(C(O)CCCN2CCC(C(O)(c3ccccc3)c3ccccc3)CC2)cc1.Cl (stereo not drawn) [FEXOFENADINE HYDROCHLORIDE] the Inhibition was 1.44%.
